Reference: PubChem BioAssay AID652243 (Drosophila RNAi Screening Center, 2013)

Test: 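Fly regulators of androgen-dependent reporter output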 (primary screen)
System: Drosophila S2R+ cells
Reagent: long dsRNA against Drosophila genes
Timing: 72 h (48 h, then 24 h hormone)
Treatment: synthetic androgen R1881 at 10 nM for 24 h
Measurement: 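Per-well raw luminescence of the androgen-driven firefly reporter and of the Renilla control, two replicates each, without normalisation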
Direction: firefly reporter light: higher = more light from androgen-responsive reporter; Renilla control light: higher = more constitutive control signal (cell number, transfection)
Hit rule: 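Hit when the log firefly-to-Renilla ratio dropped or increased by a fixed fold versus the mean of GFP or LacZ controls across duplicate plates; lowering cut given as 1.5 and as 3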
Meaning of the calls: active = hit: reporter lowered or raised; inactive = no hit
The screen tested about 24,000 reagents; below is a random part of those with a known target gene and a result. Over the whole deposit, 246 (1%) were called active. 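Plates not normalised; calls are printed but the firefly/Renilla ratio behind them is not deposited; fold cut for lowering reported inconsistently.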 Raw values are not corrected between plates. Entries without a mark were called inactive. The numbers tell different reagents against one gene apart. The record does not give: the amount of reagent.

| Target gene | reagent | firefly reporter light, replicate 1 | firefly reporter light, replicate 2 | Renilla control light, replicate 1 | Renilla control light, replicate 2 |
| --- | --- | --- | --- | --- | --- |
| CG5056 | 1 | 2.44e5 | 2.94e5 | 1.72e6 | 2.08e6 |
| Mtap (Methylthioadenosine phosphorylase) | 1 | 7.61e5 | 6.91e5 | 9.60e5 | 4.88e5 |
| Fer1 (48 related 1) | 1 | 48649 | 63869 | 1.38e6 | 1.37e6 |
| Fer1 (48 related 1) | 2 | 38088 | 57251 | 1.08e6 | 1.03e6 |
| Fer1 (48 related 1) | 3 | 5.35e5 | 3.95e5 | 1.52e6 | 1.46e6 |
| scu (scully) | 1 | 4.23e5 | 4.11e5 | 3.70e6 | 2.92e6 |
| scu (scully) | 2 | 3.69e5 | 2.00e5 | 5.94e5 | 4.48e5 |
| CG5556 | 1 | 1.35e5 | 1.37e5 | 9.25e5 | 1.14e6 |
| Yp1 (Yolk protein 1) | 1 | 2.34e5 | 3.53e5 | 1.74e6 | 2.40e6 |
| Yp1 (Yolk protein 1) | 2 | 5.56e5 | 3.22e5 | 3.56e6 | 2.05e6 |
| Opa1 (Optic atrophy 1) | 1 | 1.27e6 | 6.22e5 | 1.57e6 | 8.58e5 |
| Opa1 (Optic atrophy 1) | 2 | 3.22e5 | 4.21e5 | 9.33e5 | 9.03e5 |
| CG8838 | 1 | 8.83e5 | 1.12e6 | 9.49e5 | 1.21e6 |
| CG8838 | 2 | 2.82e5 | 3.43e5 | 6.53e5 | 7.02e5 |
| spz (spatzle) | 1 | 91962 | 82525 | 8.14e5 | 1.02e6 |
| spz (spatzle) | 2 | 3.41e5 | 4.04e5 | 9.58e5 | 1.02e6 |
| spz (spatzle) | 3 | 1.42e6 | 1.11e6 | 2.32e6 | 1.90e6 |
| zfh1 (Zn finger homeodomain 1) | 1 | 44302 | 12653 | 2.03e5 | 1.40e5 |
| zfh1 (Zn finger homeodomain 1) | 2 | 2.21e5 | 1.55e5 | 4.38e5 | 3.03e5 |
| CG13216 | 1 | 1.82e5 | 1.52e5 | 8.72e5 | 8.58e5 |
| pim (pimples) | 1 | 7.41e5 | 8.46e5 | 1.24e6 | 1.46e6 |
| Mal-A5 (Maltase A5) | 1 | 9.46e5 | 4.57e5 | 1.86e6 | 1.24e6 |
| Mal-A5 (Maltase A5) | 2 | 5.08e5 | 4.84e5 | 8.38e5 | 8.38e5 |
| CG43163 | 1 | 1.92e5 | 1.99e5 | 2.60e6 | 1.27e6 |
| CG43163 | 2 | 5.56e5 | 8.38e5 | 8.41e5 | 9.33e5 |

2 successive records from above, for reference:
| Target gene | reagent | firefly reporter light, replicate 1 | firefly reporter light, replicate 2 | Renilla control light, replicate 1 | Renilla control light, replicate 2 |
| --- | --- | --- | --- | --- | --- |
| CG8838 | 2 | 2.82e5 | 3.43e5 | 6.53e5 | 7.02e5 |
| spz (spatzle) | 1 | 91962 | 82525 | 8.14e5 | 1.02e6 |
